Laboratory results as given in patent US20240342214A1 (MEDIZINISCHE HOCHSCHULE HANNOVER, published 2024).

How the values were obtained:
[1] = molecular target: T1, human ENTPD3 (Ectonucleoside triphosphate diphosphohydrolase 3) expressed on cells (human, UniProt O75355 1-529); experiment: cell-based or functional assay
T1 sequence: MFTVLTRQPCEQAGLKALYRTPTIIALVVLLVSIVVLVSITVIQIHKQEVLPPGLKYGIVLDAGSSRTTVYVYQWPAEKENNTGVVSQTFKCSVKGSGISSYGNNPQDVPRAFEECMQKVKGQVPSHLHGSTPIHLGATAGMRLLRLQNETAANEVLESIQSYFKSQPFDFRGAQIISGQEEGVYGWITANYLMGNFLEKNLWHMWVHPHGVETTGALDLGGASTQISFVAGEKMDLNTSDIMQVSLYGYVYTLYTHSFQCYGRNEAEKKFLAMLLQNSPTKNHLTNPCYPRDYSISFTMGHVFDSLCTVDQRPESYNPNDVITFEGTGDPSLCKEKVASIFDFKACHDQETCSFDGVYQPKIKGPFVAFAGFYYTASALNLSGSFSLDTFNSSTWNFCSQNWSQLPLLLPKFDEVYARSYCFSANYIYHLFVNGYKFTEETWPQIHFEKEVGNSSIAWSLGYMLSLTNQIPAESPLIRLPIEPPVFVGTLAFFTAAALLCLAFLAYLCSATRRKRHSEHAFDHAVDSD

[2] = molecular target: T1, human ENTPD3 (Ectonucleoside …); experiment: cell-based or functional assay; remark: listed apart in the source

Binder | Fold Change in IFN-γ secretion (hIsMT/T cell co-culture 48 hrs) [1] | Fold Change in IFN-γ secretion (hIsMT/T cell co-culture 72 hrs) [1] | Fold Change in TNF-α secretion (hIsMT/T cell co-culture 48 hrs) [2] | Fold Change in TNF-α secretion (hIsMT/T cell co-culture 72 hrs) [2]
CAR 4-CD8 (antigen binding domain from binder C1, CD8 hinge) (other) QVQLVQSGAEVKKPGESLKISCKGSGYSFTSYWIGWVRQMPGKGLEWMGIIYPGDSGTRYSPSFQGQVTISADKSISTAYLQWSSLKASNTAMYYCARQQGAGAFDIWGQGTMVTVSSGGGGSGGGGSGGGGSQSALTQPPSASGSPGQSVTISCTGTSRDVGGYNYVSWYQQHPGKAPKLILYEVTKRPSGVPDRFSGSKSGNTASLTISGLQAEDEADYYCSSYTSSSTVVFGGGTKLTVLTRFVPVFLPAKPTTTPAPRPPTPAPTIASQPLSLRPEACRPAAGGAVHTRGLDFACDIYIWAPLAGTCGVLLLSLVITLYCNHRPPALEWVRSKRSRLLHSDYMNMTPRRPGPTRKHYQPYAPPRDFAAYRSASCTRVKFSRSADAPAYQQGQNQLYNELNLGRREEYDVLDKRRGRDPEMGGKPRRKNPQEGLYNELQKDKMAEAYSEIGMKGERRRGKGHDGLYQGLSTATKDTYDALHMQALPPR | 184 fold, relative to the mock CD8 T cells condition | 166 fold, relative to the mock CD8 T cells condition | 386 fold, relative to the mock CD8 T cells condition | 330 fold, relative to the mock CD8 T cells condition
CAR 13-CD8 (antigen binding domain from binder F8, CD8 hinge) (other) QIQLVQSGTEVKKPGESLKISCKGSGYSFISHWIGWVRQMPGKGLEWMGIIYPGDSGTRYSPSFQGQATISADKSISTAYLQWSSLKASDTAMYYCARLADGGLQFDHWGQGTLVTVSSGGGGSGGGGSGGGGSQSALTQPASVSGSPGQSITISCTGTSSDVGGYNYVSWYQQHPGKAPKLMIYGVSNRPSGVSNRFSGSKSGNTASLTISGLQAEDEADYYCNSYTSSSTYVFGTGTKVTVLTRFVPVFLPAKPTTTPAPRPPTPAPTIASQPLSLRPEACRPAAGGAVHTRGLDFACDIYIWAPLAGTCGVLLLSLVITLYCNHRPPALEWVRSKRSRLLHSDYMNMTPRRPGPTRKHYQPYAPPRDFAAYRSASCTRVKFSRSADAPAYQQGQNQLYNELNLGRREEYDVLDKRRGRDPEMGGKPRRKNPQEGLYNELQKDKMAEAYSEIGMKGERRRGKGHDGLYQGLSTATKDTYDALHMQALPPR | 280 fold, relative to the mock CD8 T cells condition | 310 fold, relative to the mock CD8 T cells condition | 341 fold, relative to the mock CD8 T cells condition | 301 fold, relative to the mock CD8 T cells condition
